For 31 targets, log2 fold change results are on record in the supplement of paper PMC10849652.

Sequences of proteins named here, by UniProt entry; tags and fusion partners are left off. A change or cut given only in a name is not applied to a line headed by its entry.
UniProt Q9NZ63: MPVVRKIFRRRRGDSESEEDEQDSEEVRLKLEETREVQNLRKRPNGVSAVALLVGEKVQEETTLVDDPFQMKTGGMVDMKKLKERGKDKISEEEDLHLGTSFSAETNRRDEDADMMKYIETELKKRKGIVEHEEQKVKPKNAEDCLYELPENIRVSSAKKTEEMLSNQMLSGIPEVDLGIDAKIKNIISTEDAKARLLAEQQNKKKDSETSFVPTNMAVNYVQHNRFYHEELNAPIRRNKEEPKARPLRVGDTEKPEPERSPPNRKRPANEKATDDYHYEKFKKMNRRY
UniProt P47756, whole entry, looked up: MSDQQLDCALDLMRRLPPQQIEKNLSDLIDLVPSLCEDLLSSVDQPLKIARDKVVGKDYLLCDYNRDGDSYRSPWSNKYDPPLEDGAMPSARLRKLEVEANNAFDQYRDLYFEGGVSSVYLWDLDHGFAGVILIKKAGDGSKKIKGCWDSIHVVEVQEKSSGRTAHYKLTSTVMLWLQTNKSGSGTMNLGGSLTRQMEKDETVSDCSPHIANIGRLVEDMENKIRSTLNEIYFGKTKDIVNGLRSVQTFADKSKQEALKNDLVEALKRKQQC
UniProt Q96LW7: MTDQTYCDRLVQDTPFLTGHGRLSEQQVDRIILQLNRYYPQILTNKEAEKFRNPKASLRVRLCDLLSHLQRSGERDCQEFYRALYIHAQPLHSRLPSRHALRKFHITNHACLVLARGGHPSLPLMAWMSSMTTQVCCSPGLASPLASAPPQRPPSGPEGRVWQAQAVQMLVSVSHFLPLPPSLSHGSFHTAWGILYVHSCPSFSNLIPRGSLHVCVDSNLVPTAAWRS
UniProt Q6ZSJ8: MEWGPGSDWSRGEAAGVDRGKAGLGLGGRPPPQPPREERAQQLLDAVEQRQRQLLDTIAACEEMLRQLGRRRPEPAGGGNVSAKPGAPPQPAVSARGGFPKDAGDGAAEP
UniProt Q96EU7: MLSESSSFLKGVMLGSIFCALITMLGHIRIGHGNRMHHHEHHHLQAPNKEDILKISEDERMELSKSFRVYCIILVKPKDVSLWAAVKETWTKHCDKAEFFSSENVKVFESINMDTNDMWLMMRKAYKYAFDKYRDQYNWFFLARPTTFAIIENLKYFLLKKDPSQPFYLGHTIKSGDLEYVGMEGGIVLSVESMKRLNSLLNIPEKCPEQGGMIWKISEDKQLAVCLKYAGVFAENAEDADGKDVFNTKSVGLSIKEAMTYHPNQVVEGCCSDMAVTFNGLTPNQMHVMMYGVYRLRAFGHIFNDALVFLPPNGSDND
UniProt Q9NSK7: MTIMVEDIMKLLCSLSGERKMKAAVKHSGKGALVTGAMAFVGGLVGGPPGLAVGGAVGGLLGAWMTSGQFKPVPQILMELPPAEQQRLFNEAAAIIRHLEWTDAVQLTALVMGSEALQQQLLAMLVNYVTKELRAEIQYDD
UniProt O43852: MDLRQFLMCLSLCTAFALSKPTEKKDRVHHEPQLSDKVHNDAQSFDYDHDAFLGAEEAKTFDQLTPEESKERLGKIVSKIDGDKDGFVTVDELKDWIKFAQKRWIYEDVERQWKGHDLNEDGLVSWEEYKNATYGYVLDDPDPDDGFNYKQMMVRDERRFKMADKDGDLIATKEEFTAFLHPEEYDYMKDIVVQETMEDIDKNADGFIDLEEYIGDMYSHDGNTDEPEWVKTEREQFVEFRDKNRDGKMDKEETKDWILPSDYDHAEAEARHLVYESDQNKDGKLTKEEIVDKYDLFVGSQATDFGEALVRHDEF
UniProt Q9H3H3: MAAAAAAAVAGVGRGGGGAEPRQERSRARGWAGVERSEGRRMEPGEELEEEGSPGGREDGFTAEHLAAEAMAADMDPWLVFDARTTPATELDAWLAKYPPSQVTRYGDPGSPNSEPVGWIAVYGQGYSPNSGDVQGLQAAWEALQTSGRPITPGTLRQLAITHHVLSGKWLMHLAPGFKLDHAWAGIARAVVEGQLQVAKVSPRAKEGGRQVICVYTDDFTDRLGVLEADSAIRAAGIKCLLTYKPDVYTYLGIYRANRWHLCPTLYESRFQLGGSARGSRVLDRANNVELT
UniProt Q9NS00: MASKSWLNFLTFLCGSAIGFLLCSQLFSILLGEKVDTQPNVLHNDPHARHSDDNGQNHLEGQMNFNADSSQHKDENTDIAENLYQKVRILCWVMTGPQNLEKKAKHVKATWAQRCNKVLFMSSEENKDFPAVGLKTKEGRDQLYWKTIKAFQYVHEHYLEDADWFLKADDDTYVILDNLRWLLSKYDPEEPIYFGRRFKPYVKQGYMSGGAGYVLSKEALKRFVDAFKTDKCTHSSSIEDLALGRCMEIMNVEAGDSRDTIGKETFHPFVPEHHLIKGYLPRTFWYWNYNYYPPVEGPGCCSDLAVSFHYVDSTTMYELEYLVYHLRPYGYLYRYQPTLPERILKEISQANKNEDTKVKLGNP
UniProt Q9H7E9: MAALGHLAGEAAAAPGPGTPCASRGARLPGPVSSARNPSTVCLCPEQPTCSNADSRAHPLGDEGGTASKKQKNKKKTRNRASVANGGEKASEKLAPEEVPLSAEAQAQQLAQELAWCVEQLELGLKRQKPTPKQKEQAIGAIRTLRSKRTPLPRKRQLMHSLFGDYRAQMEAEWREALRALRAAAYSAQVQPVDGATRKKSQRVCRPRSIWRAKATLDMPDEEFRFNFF
UniProt Q8N6N3: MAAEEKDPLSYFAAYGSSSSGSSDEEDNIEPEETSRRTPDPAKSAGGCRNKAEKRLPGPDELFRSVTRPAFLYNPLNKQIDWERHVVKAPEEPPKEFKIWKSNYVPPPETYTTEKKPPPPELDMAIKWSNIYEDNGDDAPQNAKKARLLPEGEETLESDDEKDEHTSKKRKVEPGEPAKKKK
UniProt P27824: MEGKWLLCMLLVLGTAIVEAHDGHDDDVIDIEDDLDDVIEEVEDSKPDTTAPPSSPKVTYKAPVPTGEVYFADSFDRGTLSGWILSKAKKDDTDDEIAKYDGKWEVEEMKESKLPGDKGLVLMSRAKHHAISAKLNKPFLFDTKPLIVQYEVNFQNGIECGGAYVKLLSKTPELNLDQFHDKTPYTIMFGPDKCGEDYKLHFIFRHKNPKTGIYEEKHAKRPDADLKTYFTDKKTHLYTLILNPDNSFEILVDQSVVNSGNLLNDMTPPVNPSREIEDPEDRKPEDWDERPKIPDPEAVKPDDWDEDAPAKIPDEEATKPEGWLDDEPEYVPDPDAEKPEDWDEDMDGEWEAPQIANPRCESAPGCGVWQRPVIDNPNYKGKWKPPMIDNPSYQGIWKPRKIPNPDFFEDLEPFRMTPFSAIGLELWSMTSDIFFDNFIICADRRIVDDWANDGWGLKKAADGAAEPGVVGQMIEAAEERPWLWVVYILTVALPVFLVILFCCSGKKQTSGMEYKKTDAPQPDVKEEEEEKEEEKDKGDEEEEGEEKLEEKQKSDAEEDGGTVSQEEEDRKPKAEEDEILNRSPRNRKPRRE
UniProt Q9H0W9: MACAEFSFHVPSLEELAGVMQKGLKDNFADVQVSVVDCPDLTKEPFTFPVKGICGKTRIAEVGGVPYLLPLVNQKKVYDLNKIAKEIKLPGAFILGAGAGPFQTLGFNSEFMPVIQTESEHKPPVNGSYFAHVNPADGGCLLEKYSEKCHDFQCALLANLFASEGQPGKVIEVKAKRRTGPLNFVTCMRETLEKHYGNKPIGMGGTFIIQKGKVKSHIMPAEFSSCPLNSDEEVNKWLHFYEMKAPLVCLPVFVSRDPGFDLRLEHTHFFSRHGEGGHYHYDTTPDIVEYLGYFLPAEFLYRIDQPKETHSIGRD
UniProt P49069: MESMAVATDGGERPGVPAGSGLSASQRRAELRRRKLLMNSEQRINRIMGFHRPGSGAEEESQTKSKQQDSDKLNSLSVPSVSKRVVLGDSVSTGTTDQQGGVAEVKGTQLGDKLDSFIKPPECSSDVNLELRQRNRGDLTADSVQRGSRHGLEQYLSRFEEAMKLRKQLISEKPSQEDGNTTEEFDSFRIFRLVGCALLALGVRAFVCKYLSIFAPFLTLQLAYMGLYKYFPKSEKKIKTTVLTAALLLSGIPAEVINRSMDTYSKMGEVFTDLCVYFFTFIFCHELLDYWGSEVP
UniProt Q9BSU1: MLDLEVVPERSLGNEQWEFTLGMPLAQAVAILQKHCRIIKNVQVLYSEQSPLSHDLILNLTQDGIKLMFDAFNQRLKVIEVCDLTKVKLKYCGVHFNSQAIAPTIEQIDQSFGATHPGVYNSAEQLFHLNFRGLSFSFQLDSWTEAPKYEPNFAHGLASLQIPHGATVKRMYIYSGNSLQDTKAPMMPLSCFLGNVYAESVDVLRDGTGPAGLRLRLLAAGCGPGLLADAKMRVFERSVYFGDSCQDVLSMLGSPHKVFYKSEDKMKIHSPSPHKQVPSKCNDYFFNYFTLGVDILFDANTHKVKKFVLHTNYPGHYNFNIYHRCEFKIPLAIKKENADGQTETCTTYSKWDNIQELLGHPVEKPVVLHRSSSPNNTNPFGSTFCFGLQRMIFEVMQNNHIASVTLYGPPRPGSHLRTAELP
UniProt Q01518, whole entry, looked up: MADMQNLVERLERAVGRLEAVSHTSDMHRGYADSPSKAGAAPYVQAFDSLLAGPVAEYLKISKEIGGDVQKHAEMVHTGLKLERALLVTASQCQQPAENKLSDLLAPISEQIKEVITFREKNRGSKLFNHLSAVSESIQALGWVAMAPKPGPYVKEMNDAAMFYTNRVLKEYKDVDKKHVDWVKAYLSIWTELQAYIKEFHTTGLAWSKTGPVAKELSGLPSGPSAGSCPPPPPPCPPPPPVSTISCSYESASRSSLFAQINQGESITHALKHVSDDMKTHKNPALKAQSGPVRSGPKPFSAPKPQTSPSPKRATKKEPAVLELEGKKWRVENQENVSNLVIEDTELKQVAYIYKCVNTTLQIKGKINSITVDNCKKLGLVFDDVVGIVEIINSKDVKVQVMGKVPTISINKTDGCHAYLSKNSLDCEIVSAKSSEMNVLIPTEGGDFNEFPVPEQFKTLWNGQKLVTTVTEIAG
UniProt Q9P1Z2: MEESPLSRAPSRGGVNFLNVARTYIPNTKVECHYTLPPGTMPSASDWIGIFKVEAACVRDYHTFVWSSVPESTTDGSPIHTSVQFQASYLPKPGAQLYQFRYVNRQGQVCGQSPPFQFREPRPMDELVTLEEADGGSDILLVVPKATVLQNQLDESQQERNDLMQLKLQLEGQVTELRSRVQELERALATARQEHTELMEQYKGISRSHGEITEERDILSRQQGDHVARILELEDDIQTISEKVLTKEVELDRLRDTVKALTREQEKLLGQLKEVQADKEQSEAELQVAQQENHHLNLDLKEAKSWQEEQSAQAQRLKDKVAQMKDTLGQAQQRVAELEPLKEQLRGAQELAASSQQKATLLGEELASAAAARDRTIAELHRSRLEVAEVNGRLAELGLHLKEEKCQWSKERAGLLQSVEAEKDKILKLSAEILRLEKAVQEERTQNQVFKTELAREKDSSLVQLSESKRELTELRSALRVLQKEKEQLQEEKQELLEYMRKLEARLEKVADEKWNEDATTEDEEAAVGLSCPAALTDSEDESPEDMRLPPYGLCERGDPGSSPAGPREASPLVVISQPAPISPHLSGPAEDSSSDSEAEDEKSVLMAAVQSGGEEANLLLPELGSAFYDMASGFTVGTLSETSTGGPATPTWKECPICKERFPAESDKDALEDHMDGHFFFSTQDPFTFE
UniProt Q9H8G2: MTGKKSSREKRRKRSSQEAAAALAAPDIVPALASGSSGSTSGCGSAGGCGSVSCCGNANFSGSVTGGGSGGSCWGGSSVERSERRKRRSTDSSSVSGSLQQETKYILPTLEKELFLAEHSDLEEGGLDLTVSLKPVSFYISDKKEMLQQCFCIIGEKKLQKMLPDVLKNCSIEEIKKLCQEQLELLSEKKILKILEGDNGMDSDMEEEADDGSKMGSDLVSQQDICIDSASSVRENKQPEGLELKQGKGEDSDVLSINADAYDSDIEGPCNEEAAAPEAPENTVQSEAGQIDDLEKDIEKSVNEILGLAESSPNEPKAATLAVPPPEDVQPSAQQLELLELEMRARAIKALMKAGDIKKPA
UniProt Q96K31: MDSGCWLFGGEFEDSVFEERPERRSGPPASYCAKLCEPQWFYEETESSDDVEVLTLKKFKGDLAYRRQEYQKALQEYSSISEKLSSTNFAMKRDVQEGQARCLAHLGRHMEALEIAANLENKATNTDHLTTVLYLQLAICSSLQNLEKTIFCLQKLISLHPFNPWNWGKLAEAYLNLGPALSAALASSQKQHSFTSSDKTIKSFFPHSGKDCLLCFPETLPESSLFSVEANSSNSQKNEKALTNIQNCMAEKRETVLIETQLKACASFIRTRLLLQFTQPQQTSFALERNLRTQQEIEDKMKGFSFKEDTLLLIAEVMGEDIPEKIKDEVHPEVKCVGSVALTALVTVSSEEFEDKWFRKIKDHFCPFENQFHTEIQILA
UniProt O43684, whole entry, looked up: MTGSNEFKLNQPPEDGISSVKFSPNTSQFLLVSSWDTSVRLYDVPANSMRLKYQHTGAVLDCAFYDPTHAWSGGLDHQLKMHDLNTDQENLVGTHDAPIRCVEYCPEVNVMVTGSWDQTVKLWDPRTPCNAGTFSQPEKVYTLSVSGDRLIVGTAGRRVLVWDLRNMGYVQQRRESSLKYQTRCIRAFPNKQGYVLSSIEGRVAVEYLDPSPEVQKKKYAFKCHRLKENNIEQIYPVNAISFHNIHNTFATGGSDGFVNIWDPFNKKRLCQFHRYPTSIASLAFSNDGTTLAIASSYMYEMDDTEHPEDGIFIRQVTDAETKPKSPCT

This is one part of the list.

Compound in the assay: c1cn2cc(-c3ccc4cn[nH]c4c3)nc(Nc3ccc(N4CCOCC4)cc3)c2n1 [entospletinib]
In words: log2 fold change, soluble protein after heating vs DMSO (PISA); higher = thermal stabilisation; K562 cells, 10 uM, 30 min; active = over 0.2 and 3.5 SD of the protein, either way, in both replicates (recomputed). The method, boiled down: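 K562 cells (2×10^6 cells/mL) were treated with 10 μM compound for 30 min, and aliquots were heated for 3 min over 48°C-58°C. Pooled aliquots were extracted in PBS with 0.5% NP-40 at 4°C, and the supernatant after 21,000xg for 90 min was measured by TMTpro 16plex LC-MS/MS with channel sums equalised. Reported thermal stability, relative to control samples and from duplicates, is a log2 fold change.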
For BTF3L4 (UniProt Q96K17), the log2 fold change is inactive: -0.009. To C9orf78 (UniProt Q9NZ63) belongs inactive: 0.005; to CAPZB isoform 2 (UniProt P47756), inactive: 0.053. To CARD19 isoform 2 (UniProt Q96LW7) belongs inactive: 0.014; to C1orf109 (UniProt Q9NX04), inactive: -0.004.

On to BUD23 isoform 3 (UniProt O43709), for which the log2 fold change is inactive: 0.078. To C1orf122 (UniProt Q6ZSJ8) belongs inactive: -0.01; to C1GALT1C1 (UniProt Q96EU7), inactive: 0.032. Regarding C19orf12 (UniProt Q9NSK7), the log2 fold change was inactive: -0.175. Regarding CALU isoform 3 (UniProt O43852), the log2 fold change is inactive: 0.005. To C12orf65 (UniProt Q9H3J6) belongs inactive: 0.086; to CALM2 (UniProt P0DP24), inactive: -0.032; to C11orf68 (UniProt Q9H3H3), inactive: -0.036. The figure for CAPZA2 (UniProt P47755) is inactive: 0.001. To C1GALT1 (UniProt Q9NS00) belongs inactive: 0.036; to C8orf33 isoform 2 (UniProt Q9H7E9), inactive: 0.096; to BUD31 (UniProt P41223), inactive: 0.025. Regarding BUB1 (UniProt O43683), the log2 fold change is inactive: -0.145. Regarding C1orf52 (UniProt Q8N6N3), the log2 fold change is inactive: 0.024. To CANX isoform 2 (UniProt P27824) belongs inactive: 0.018; to C11orf54 (UniProt Q9H0W9), inactive: 0.049. As for CAMLG (UniProt P49069), the log2 fold change is inactive: 0.017. To C16orf70 (UniProt Q9BSU1) belongs inactive: -0.013; to CAP1 (UniProt Q01518), inactive: 0.033; to CALCOCO1 (UniProt Q9P1Z2), inactive: 0.074.

On to C6orf47 (UniProt O95873), for which the log2 fold change is inactive: 0.018. The figure for CAAP1 (UniProt Q9H8G2) is inactive: 0.093; for C8orf76 (UniProt Q96K31) it is inactive: -0.046. The figure for BUB3 (UniProt O43684) is inactive: -0.025.

For C2CD2 (UniProt Q9Y426), the log2 fold change was inactive: 0.061. C3 (UniProt P01024): the log2 fold change is inactive: 0.223.
